{"source": "patent EP0702551B1", "about": "“COMPOSITIONS AND METHODS FOR REPARATION AND PREVENTION OF FIBROTIC LESIONS” (MARGOLIN, Solomon B., priority 1993, dated 1994)", "tested_on": "CYCLOPHOSPHAMIDE-INDUCED IN[…]", "assay": "Cyclophosphamide-induced interstitial fibrosis in mice", "format": "in vivo", "conditions": "GROUP IV: 500 mg/kg/day p.o., saline, no cyclophosphamide", "excerpt": "In mice, pulmonary fibrosis induced with cyclophosphamide […] and is know to produce pulmonary fibrosis in patients as a side effect.", "note": "Marks after values point to notes of the source that are not given here.", "data": [{"smiles": "Cc1ccc(=O)n(-c2ccccc2)c1", "note": "[pirfenidone, 5-methyl-1-phenyl-2-(1H) pyridone]", "values": [{"measurement": "Lung Dry Wt.", "value": "39.0+/-2.8** Mg."}, {"measurement": "Lung FIBROSIS Scores (N/N), incidence of scores 3.0 or less", "value": "5/5"}, {"measurement": "Lung FIBROSIS Scores", "setting": "scoring 0 through 6", "value": "0.68+/-0.35"}]}]}
